PubChem BioAssay AID1259405, NCATS, 2018
This is a random part of about 50,000 deposited reagents. Of all reagents, about 4,000 (8%) were called active. 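Mouse siRNA library applied to hamster cells; one well for each siRNA.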 Reagents against one gene are numbered here.

- Purpose: 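Mouse-designed siRNAs used to find CHO productivity engineering targets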 (primary screen)
- Cells: Chinese hamster CHO-K1 ovary cells with stable secreted eGFP expression
- Knock-down reagent: single siRNA against mouse genes, 0.8 pmol siRNA per well (2 µl of 400 nM stock)
- Duration: 3 days
- Read-out: 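Per-well intracellular GFP measured by laser scanning cytometry, plus viability from ATP luminescence, each relative to plate median of non-targeting control wells, in %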
- Reading the numbers: GFP, % of control: higher = more GFP per well, higher productivity; viability (ATP), % of control: higher = more viable cells (more ATP)
- Active means: 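a knock-down is called active if GFP reaches 120% or more of non-targeting control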

no.	Target gene	reagent	GFP, % of control	viability (ATP), % of control	activity call
1	Setd3 (GeneID 52690)	1	103	84	inactive
2	Setd3 (GeneID 52690)	2	135	82.2	active
3	Setd3 (GeneID 52690)	3	109	119	inactive
4	Clk3 (GeneID 102414)	1	158	86.1	active
5	Clk3 (GeneID 102414)	2	45.4	63.5	inactive
6	Clk3 (GeneID 102414)	3	71	70.8	inactive
7	Sp6 (GeneID 83395)	1	82.9	75.4	inactive
8	Sp6 (GeneID 83395)	2	67.8	111	inactive
9	Sp6 (GeneID 83395)	3	96.4	116	inactive
10	Mfge8 (GeneID 17304)	1	101	101	inactive
11	Mfge8 (GeneID 17304)	2	114	88.3	inactive
12	Ubtd1 (GeneID 226122)	1	24.6	40.9	inactive
13	Ubtd1 (GeneID 226122)	2	62.2	55.5	inactive
14	Ubtd1 (GeneID 226122)	3	50.6	90.5	inactive
15	Bmp15 (GeneID 12155)	1	85.1	81.6	inactive
16	Bmp15 (GeneID 12155)	2	47.3	47.5	inactive
17	Bmp15 (GeneID 12155)	3	78.3	54	inactive
18	Prdm16 (GeneID 70673)	1	58.9	72.5	inactive
19	Prdm16 (GeneID 70673)	2	86.8	51.7	inactive
20	Prdm16 (GeneID 70673)	3	81.8	100	inactive
21	Prdm4 (GeneID 72843)	1	102	112	inactive
22	Prdm4 (GeneID 72843)	2	53	78.7	inactive
23	Prdm4 (GeneID 72843)	3	98.4	116	inactive
24	Or52a20 (GeneID 436002)	1	119	84.1	inactive
25	Or52a20 (GeneID 436002)	2	76.9	79.1	inactive
26	Or52a20 (GeneID 436002)	3	56.2	37.6	inactive
27	Or14j6 (GeneID 258374)	1	51.7	63.5	inactive
28	Or14j6 (GeneID 258374)	2	65.3	83.1	inactive
29	Or14j6 (GeneID 258374)	3	82.2	87.8	inactive
30	Gtf2h1 (GeneID 14884)	1	73.6	93	inactive
31	Gtf2h1 (GeneID 14884)	2	73.1	71.6	inactive
32	Gtf2h1 (GeneID 14884)	3	108	74.6	inactive
33	Or4a66 (GeneID 258456)	1	56.3	73.2	inactive
34	Or4a66 (GeneID 258456)	2	67.9	83.6	inactive
35	Or4a66 (GeneID 258456)	3	40.5	80.9	inactive
36	Hmgn2 (GeneID 15331)	1	67.7	73.7	inactive
37	Hmgn2 (GeneID 15331)	2	46.3	83.2	inactive
38	Hmgn2 (GeneID 15331)	3	18.3	20.1	inactive
39	Elmod1 (GeneID 270162)	1	66	32.6	inactive
40	Elmod1 (GeneID 270162)	2	88.6	46.6	inactive
41	Elmod1 (GeneID 270162)	3	84.5	70.9	inactive
42	Ugt3a2 (GeneID 105887)	1	117	65.4	inactive
43	Ugt3a2 (GeneID 105887)	2	71.4	64.2	inactive
44	Ugt3a2 (GeneID 105887)	3	260	43.4	active
45	Mdp1 (GeneID 67881)	1	56.3	55.5	inactive
46	Mdp1 (GeneID 67881)	2	89.8	89.3	inactive
47	Mdp1 (GeneID 67881)	3	95.8	87.5	inactive
48	Cerk (GeneID 223753)	1	42.1	53.3	inactive
49	Col23a1 (GeneID 237759)	1	73.2	72.8	inactive
50	Col23a1 (GeneID 237759)	2	140	101	active
51	Col23a1 (GeneID 237759)	3	103	83.7	inactive
52	Wdr17 (GeneID 244484)	1	81.3	60.8	inactive
53	Wdr17 (GeneID 244484)	2	80.7	76.9	inactive
54	Wdr17 (GeneID 244484)	3	53.2	71	inactive
55	Timm17a (GeneID 21854)	1	99.5	85.7	inactive
56	Timm17a (GeneID 21854)	2	82.1	74.4	inactive
57	Timm17a (GeneID 21854)	3	70	61.9	inactive
58	Wiz (GeneID 22404)	1	95.1	87.5	inactive
59	Wiz (GeneID 22404)	2	98.8	88.4	inactive
60	Wiz (GeneID 22404)	3	90.5	100	inactive
61	Trmt112 (GeneID 67674)	1	85	102	inactive
62	Trmt112 (GeneID 67674)	2	98.3	84.1	inactive
63	Trmt112 (GeneID 67674)	3	51.8	31.3	inactive
64	Rcn2 (GeneID 26611)	1	109	129	inactive
65	Rcn2 (GeneID 26611)	2	100	67.5	inactive
66	Rbm4b (GeneID 66704)	1	80	94.9	inactive
67	Rbm4b (GeneID 66704)	2	115	73.3	inactive
68	Rbm4b (GeneID 66704)	3	49.8	51.1	inactive
69	Dnajc10 (GeneID 66861)	1	125	76.3	active
70	Dnajc10 (GeneID 66861)	2	61.6	39	inactive
71	Dnajc10 (GeneID 66861)	3	93.8	55.6	inactive
72	Sel1l (GeneID 20338)	1	71.7	87.5	inactive
73	Sel1l (GeneID 20338)	2	82.1	68.7	inactive
74	Sel1l (GeneID 20338)	3	68.3	80.2	inactive
75	1700010I14Rik (GeneID 66931)	1	95.6	87.2	inactive
76	1700010I14Rik (GeneID 66931)	2	72.5	81.3	inactive
77	1700010I14Rik (GeneID 66931)	3	24.7	42.7	inactive
78	Or8b39 (GeneID 258415)	1	137	60.5	active
79	Or8b39 (GeneID 258415)	2	91.4	73.7	inactive
80	Or8b39 (GeneID 258415)	3	54.7	59.6	inactive
81	Or2i1 (GeneID 258219)	1	70.8	70.1	inactive
82	Or2i1 (GeneID 258219)	2	81.7	92.6	inactive
83	Or2i1 (GeneID 258219)	3	51.2	60.5	inactive
84	Ing5 (GeneID 66262)	1	92.9	74	inactive
85	Ing5 (GeneID 66262)	2	210	178	active
86	Spcs2 (GeneID 66624)	1	90.3	39.5	inactive
87	Spcs2 (GeneID 66624)	2	82.4	79	inactive
88	Spcs2 (GeneID 66624)	3	72.6	71.1	inactive
89	1810030O07Rik (GeneID 69155)	1	36.5	42	inactive
90	1810030O07Rik (GeneID 69155)	2	115	81.2	inactive
91	1810030O07Rik (GeneID 69155)	3	63.9	78.9	inactive
92	Gstt2 (GeneID 14872)	1	119	113	inactive
93	Gstt2 (GeneID 14872)	2	48.2	37.5	inactive
94	Gstt2 (GeneID 14872)	3	68.3	82.7	inactive
95	Scnn1a (GeneID 20276)	1	133	106	active
96	Scnn1a (GeneID 20276)	2	54.3	32.6	inactive
97	Scnn1a (GeneID 20276)	3	42.5	76	inactive
98	Klhl17 (GeneID 231003)	1	42.9	31.6	inactive
99	Klhl17 (GeneID 231003)	2	59.8	62.8	inactive
100	Klhl17 (GeneID 231003)	3	105	79.8	inactive
101	4930591A17Rik (GeneID 68175)	1	36.5	51	inactive
102	4930591A17Rik (GeneID 68175)	2	38.2	77.3	inactive
103	4930591A17Rik (GeneID 68175)	3	54.2	86	inactive
104	Aco1 (GeneID 11428)	1	103	106	inactive
105	Aco1 (GeneID 11428)	2	64.2	80.6	inactive
106	Il5 (GeneID 16191)	1	89.9	134	inactive
107	Il5 (GeneID 16191)	2	63.2	67	inactive
